From PubChem BioAssay AID1347426 (Functional Genomics Laboratory (NCATS/FGL), 2020)
Screen size: about 31,000 sequences; about 1,400 (4.5%) were called active.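 The calls were made as follows: active = median seed-adjusted z-score above 1 or below -1; inactive = the rest.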 The list shows a part of the results.

Assay: Novel Modifiers of Survival Motor Neuron (SMN) Protein: Gene Identification via Genome-wide siRNA Screen;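 also: luminescence tracks full-length SMN protein made from the SMN2 reporter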
Details: HEK293T SMN2-luciferase reporter, siRNA knockdown, 72 h; actives lie on both sides
How it was run: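 Genome-wide siRNA screen (10418 genes, 3 siRNAs each, 1 pmol per well) by reverse transfection in HEK293T cells stably carrying an SMN2-luciferase reporter; luminescence after 72 hours, normalized to negative-control siRNA, log10-transformed, MAD-scored.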

Row | Sequence | median seed-adjusted z-score
1 | CAGAGACCUUCAAACAGCATT against SLC27A3 | inactive: -0.341
2 | GGACCAAGAGUUCCCAUUATT against RAB19 | inactive: -0.0516
3 | GAUGUCUCCUUUAUCGAUATT against ACOT9 | inactive: 0.58
4 | CACUAUAUCAAUUACCGAATT against THRB | inactive: 0.324
5 | GGACAAAGUGUUAAUUACATT against DUSP16 | inactive: 0
6 | CCUUAAAGUCUACACCCAATT against TMEM123 | inactive: 0.292
7 | CUAUACCUGCGUAGAUAUATT against EFEMP1 | inactive: 0.0157
8 | AAGGUAAAAUUGAAGAGUUTT against SERPINB9 | inactive: 0
9 | GCCCUGGGUGGAUACUUGATT against PIM3 | active: -1.01
10 | GAAACAACUUGAUUUCGAATT against PCDHB8 | active: 1.15
11 | AGCUCUUUGCUACAGAUGATT against ACAD8 | active: 1.06
12 | CAGUCGUUGCUGUCAAAAATT against RGS9 | inactive: 0.0665
13 | GCCGGUUUUUCAGCUCAAATT against NEK7 | inactive: 0
14 | UGUGGAACAUUAUCAGGAATT against ALG2 | inactive: 0.631
15 | AGAUCAUCUUUAUUGUCGUTT against GPR15 | inactive: 0.101
16 | GCAGUAAGAUGGGAGCUUUTT against PLA2G4F | inactive: -0.0231
17 | GAGUCGGCAUAGCUAUAUUTT against CDKL5 | inactive: -0.256
18 | GCCUCAUCGUGGUUAGCAATT against ASRGL1 | inactive: 0
19 | GCGAUACAACUGAUCCAGATT against SLC22A13 | inactive: 0.904
20 | ACACUGCCCGAAGUCCUUUTT against ZNF575 | inactive: 0.458
21 | GCAGUGAUUCUGUAUCCGATT against VPS54 | inactive: -0.128
22 | GGAUGAUCGAGACCAGUUUTT against XPO4 | inactive: 0.616
23 | GGAACUAGAUGUCAUGUAUTT against VILL | inactive: 0.518

Row | Sequence | median seed-adjusted z-score
24 | CAGUCUUACUGGGAACAAUTT against TGDS | inactive: -0.196
25 | GAGCACUUCUACAAUAGAATT against GALNT4 | inactive: 0.419
26 | GGAACGUGGUACUUAGUUATT against HMGCS1 | inactive: 0.0596
27 | ACUUGUCCUUAAUAAAGAATT against IL5 | inactive: -0.229
28 | AACCGCUGCUUGAAAGAUATT against PI3 | inactive: 0.493
29 | GGCCCAAGAUCUUCCCUAATT against GPR179 | inactive: -0.513
30 | CCUCAAUGUCUGUAUGGAUTT against FOLR2 | inactive: -0.0835
31 | GAGUAGAUGCUGCUAUUUATT against PPM1E | inactive: -0.00802
32 | CCCUAAUAGAGGACACUAUTT against PCDHGA1 | inactive: -0.319
33 | GAACUUCUACUUUAACAAATT against HS3ST1 | active: 1.21
34 | CCAUCGUGUCUGUAGAGGATT against RNF123 | inactive: 0
35 | CCAUUGCCGAAAUCUAAAATT against DEK | inactive: 0.374
36 | GCUUCCCGAUUAACUGAAATT against MECP2 | inactive: -0.332
37 | CAAGGAUAUUGGUGAUUAATT against GTF2H3 | inactive: 0.356
38 | GGUACUCACUCACCAAUGATT against NPR1 | inactive: -0.823
39 | GAAUCUUGCAUCAAUAUAATT against CLDN23 | inactive: 0.817
40 | CCUUUGGAUGGAAUACUUATT against TKTL2 | inactive: -0.0379
41 | CAGUGUUCCUGACUUCGAATT against COPS3 | inactive: 0.176
42 | GGCCCUACCACAUCCAGAATT against ACSBG1 | inactive: 0.113
43 | CACCCUUAUUGAUUCUGAUTT against DHRS13 | inactive: 0.192
44 | CUACGACUCAAGAACUAUATT against LARS | inactive: -0.788
45 | GCAUCAUCAAUGGAUCCGATT against KLK5 | inactive: 0
46 | GCAUCAGCAUAAGUCCAUUTT against SIAH1 | active: 1.5

Row | Sequence | median seed-adjusted z-score
47 | CGCUACACCCUGCACUAUATT against TRAP1 | inactive: -0.637
48 | GCACAACACUCGCUCCAAUTT against GLT8D1 | active: 1.22
49 | GAACAGAUAUCUAAAACGATT against SNX2 | inactive: -0.569
50 | CAGCGGAUGUGUUCAGUCUTT against PKMYT1 | inactive: 0.65
51 | GGCUGUUCUCCGAGACAAATT against SNED1 | inactive: 0.148
52 | GGAUCACACCUACAGCAAATT against ACTL6B | inactive: 0.0703
53 | CGAUUUGCGCAUUUCCUGGTT against FOXD4L2 | inactive: -0.118
54 | UGAACAUCUUGUCCUUUUATT against CERK | inactive: 0
55 | GGCUGGAAAAUACUCGCUATT against SRL | inactive: 0.148
56 | CAAUCUACAGAAUUCUACATT against IMMP1L | inactive: -0.444
57 | CUACAUCAAGAAGACAUAUTT against ABHD2 | active: -1.21
58 | GGAUCAUGACAUUCCAUAATT against DGCR8 | inactive: -0.266
59 | GGGUUUAUUUGCAAGACGATT against PDPK1 | inactive: 0.0807
60 | ACAGGAACGAAAUCCGGAATT against PLEKHJ1 | inactive: -0.213
61 | CCCUGACGGUAGAUACAUUTT against TRPM7 | inactive: -0.575
62 | GGGACCUACUCAAAAGUCATT against TSSK3 | inactive: -0.381
63 | GGAUUGCGCUGAAGACUAUTT against UNC13B | inactive: -0.0216
64 | ACAUCACGCGGGCUUCUAATT against HS6ST3 | inactive: -0.405
65 | GGAGGUUAUAAUUAUGUUATT against ZNF716 | inactive: 0
66 | GCUGAGAUAUCUAGGAGAATT against RPS6KA5 | inactive: -0.0588
67 | GGAAUUACCUGUCCAUCUUTT against CAPN1 | inactive: 0.282
68 | GCUCAUGUCAGAGUGCGAATT against HOMER2 | inactive: 0.522
69 | CCGGGAUCAUAAAAUCACATT against SLC9A8 | inactive: 0.367

6 entries from above, in CSV form:
Row,Sequence,median seed-adjusted z-score
53,CGAUUUGCGCAUUUCCUGGTT against FOXD4L2,inactive: -0.118
54,UGAACAUCUUGUCCUUUUATT against CERK,inactive: 0
55,GGCUGGAAAAUACUCGCUATT against SRL,inactive: 0.148
56,CAAUCUACAGAAUUCUACATT against IMMP1L,inactive: -0.444
57,CUACAUCAAGAAGACAUAUTT against ABHD2,active: -1.21
58,GGAUCAUGACAUUCCAUAATT against DGCR8,inactive: -0.266
